# Test results taken from the supplement of paper PMC8728848.
# This is one part of the list.
# Legend:
# Experiment in all cases: glycan array binding signal (z-score within array); higher = stronger binding
# Settings in all cases: glycan notation: IUPAC condensed, linker removed
# [1] = biological target: Neu5Ac(a2-6)GlcNAc(b1-4)GlcNAc(b1-4)GlcNAc
# How it was run: (§1)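 Columns mapping to the same glycan were averaged after glycan names were converted to IUPAC-condensed notation. The data come from 3228 arrays in the Consortium for Functional Glycomics database, limited to those with an available protein sequence. Binding is reported as a within-array Z-score averaged across arrays of one protein sequence and across linkers.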
# Neu5Ac(a2-8)Neu5Ac = biological target: Neu5Ac(a2-8)Neu5Ac
# How it was run: as §1
# [2] = biological target: Neu5Ac(a2-8)Neu5Ac(a2-3)Gal(b1-3)GalNAc(b1-4)[Neu5Ac(a2-3)]Gal(b1-4)Glc
# How it was run: as §1
# [3] = biological target: Neu5Ac(a2-8)Neu5Ac(a2-3)Gal(b1-3)GalNAc(b1-4)[Neu5Ac(a2-8)Neu5Ac(a2-3)]Gal(b1-4)Glc
# How it was run: as §1
# [4] = biological target: Neu5Ac(a2-8)Neu5Ac(a2-3)Gal(b1-4)Glc
# How it was run: as §1
# [5] = biological target: Neu5Ac(a2-8)Neu5Ac(a2-3)Gal(b1-4)GlcNAc
# How it was run: as §1
# [6] = biological target: Neu5Ac(a2-8)Neu5Ac(a2-3)[Gal(b1-3)GalNAc(b1-4)]Gal(b1-4)Glc
# How it was run: as §1
# [7] = biological target: Neu5Ac(a2-8)Neu5Ac(a2-3)[GalNAc(b1-4)]Gal(b1-4)Glc
# How it was run: as §1
# [8] = biological target: Neu5Ac(a2-8)Neu5Ac(a2-8)Neu5Ac
# How it was run: as §1
# [9] = biological target: Neu5Ac(a2-8)Neu5Ac(a2-8)Neu5Ac(a2-3)Gal(b1-4)Glc
# How it was run: as §1
# [10] = biological target: Neu5Ac(a2-8)Neu5Ac(a2-8)Neu5Ac(a2-3)[Gal(b1-3)GalNAc(b1-4)]Gal(b1-4)Glc
# How it was run: as §1
# [11] = biological target: Neu5Ac(a2-8)Neu5Ac(a2-8)Neu5Ac(a2-3)[GalNAc(b1-4)]Gal(b1-4)Glc
# How it was run: as §1
# [12] = biological target: Neu5Ac(a2-8)Neu5Ac(a2-8)Neu5Ac(a2-8)Neu5Ac(a2-3)[GalNAc(b1-4)]Gal(b1-4)Glc
# How it was run: as §1
# [13] = biological target: Neu5Ac(a2-8)Neu5Gc(a2-3)Gal(b1-4)GlcNAc
# How it was run: as §1
# [14] = biological target: Neu5Ac(b2-6)Gal(b1-4)GlcNAc
# How it was run: as §1
# Neu5Ac(b2-6)GalNAc = biological target: Neu5Ac(b2-6)GalNAc
# How it was run: as §1
# [15] = biological target: Neu5Ac9Ac(a2-3)Gal(b1-3)GlcNAc
# How it was run: as §1
# [16] = biological target: Neu5Ac9Ac(a2-3)Gal(b1-4)GlcNAc
# How it was run: as §1
# [17] = biological target: Neu5Ac9Ac(a2-6)Gal(b1-4)GlcNAc
# How it was run: as §1
# [18] = biological target: Neu5Gc(a2-3)Gal(b1-3)GlcNAc
# How it was run: as §1
# [19] = biological target: Neu5Gc(a2-3)Gal(b1-3)[Fuc(a1-4)]GlcNAc
# How it was run: as §1
# Neu5Gc(a2-3)Gal(b1-4)Glc = biological target: Neu5Gc(a2-3)Gal(b1-4)Glc
# How it was run: as §1
# [20] = biological target: Neu5Gc(a2-3)Gal(b1-4)GlcNAc
# How it was run: as §1
# [21] = biological target: Neu5Gc(a2-3)Gal(b1-4)GlcNAc(b1-3)Gal(b1-4)GlcNAc(b1-2)Man(a1-3)[Neu5Gc(a2-3)Gal(b1-4)GlcNAc(b1-3)Gal(b1-4)GlcNAc(b1-2)Man(a1-6)]Man(b1-4)GlcNAc(b1-4)GlcNAc
# How it was run: as §1
# [22] = biological target: Neu5Gc(a2-3)Gal(b1-4)[Fuc(a1-3)]GlcNAc
# How it was run: as §1
# [23] = biological target: Neu5Gc(a2-6)Gal(b1-4)GlcNAc
# How it was run: as §1
# Neu5Gc(a2-6)GalNAc = biological target: Neu5Gc(a2-6)GalNAc
# How it was run: as §1
# [24] = biological target: Neu5Gc(a2-8)Neu5Ac(a2-3)Gal(b1-4)GlcNAc
# How it was run: as §1
# [25] = biological target: Neu5Gc(a2-8)Neu5Gc(a2-3)Gal(b1-4)GlcNAc
# How it was run: as §1
# [26] = biological target: Neu5Gc(a2-8)Neu5Gc(a2-3)Gal(b1-4)GlcNAc(b1-3)Gal(b1-4)GlcNAc
# How it was run: as §1
# [27] = biological target: Neu5Gc(a2-8)Neu5Gc(a2-6)Gal(b1-4)GlcNAc
# How it was run: as §1
# [28] = biological target: Neu5Gc(b2-6)Gal(b1-4)GlcNAc
# How it was run: as §1
binder,measurement,setting,value
Clec39 (Caenorhabditis elegans) (protein) MTSFYDNSSSSSKPVPLKTSRAQKIQILIFDNWKLILYGAISTLILVLAIMFSTLFFALPAANCDENSEPTKYYTTNAEITTTITTTNQKTTSTASSHLTTISSSATQIYSESSSSSTSQSTFTQSPPEISTTTIAPSDFSCQHGFTLVNNKCWKLVTSNQARPDADKICNGYGGATLFSIKSEQDNRAMIHFVKGQDIDFLWSGLLCSAGEPISCIWDIENGSTANYSNFADGFPNIVYGNCVYFITSGDEAGQWGNEQCGQVMNFVCELPATFQGKDGCKNNYEKSCYLRFDLNLTVPQAQNFCLEKCANLVSIHSANEVRFIMTIYDFIGEILIGALAPAQDFIYWLDGTPANYNNLKFFYNSTCVHMTVAPGMQNVGKWFTRFCTETGKFLCKRSIKNSCT,glycan array binding signal (z-score),[1],-0.082
same,glycan array binding signal (z-score),Neu5Ac(a2-8)Neu5Ac,-0.965
same,glycan array binding signal (z-score),[2],0.812
same,glycan array binding signal (z-score),[3],1.4
same,glycan array binding signal (z-score),[4],-1.08
same,glycan array binding signal (z-score),[5],-0.35
same,glycan array binding signal (z-score),[6],0.49
same,glycan array binding signal (z-score),[7],-0.697
same,glycan array binding signal (z-score),[8],-0.604
same,glycan array binding signal (z-score),[9],-0.211
same,glycan array binding signal (z-score),[10],0.076
same,glycan array binding signal (z-score),[11],0.422
same,glycan array binding signal (z-score),[12],0.885
same,glycan array binding signal (z-score),[13],0.21
same,glycan array binding signal (z-score),[14],-0.632
same,glycan array binding signal (z-score),Neu5Ac(b2-6)GalNAc,-1.21
same,glycan array binding signal (z-score),[15],-0.744
same,glycan array binding signal (z-score),[16],-0.091
same,glycan array binding signal (z-score),[17],-0.342
same,glycan array binding signal (z-score),[18],-0.46
same,glycan array binding signal (z-score),[19],1.01
same,glycan array binding signal (z-score),Neu5Gc(a2-3)Gal(b1-4)Glc,-0.318
same,glycan array binding signal (z-score),[20],-0.626
same,glycan array binding signal (z-score),[21],1.18
same,glycan array binding signal (z-score),[22],0.179
same,glycan array binding signal (z-score),[23],0.075
same,glycan array binding signal (z-score),Neu5Gc(a2-6)GalNAc,-0.101
same,glycan array binding signal (z-score),[24],-0.906
same,glycan array binding signal (z-score),[25],-0.057
same,glycan array binding signal (z-score),[26],-0.502
same,glycan array binding signal (z-score),[27],0.508
same,glycan array binding signal (z-score),[28],-0.162

# An excerpt of these results, bar-delimited.
binder | measurement | setting | value
Clec39 (Caenorhabditis elegans) (protein) MTSFYDNSSSSSKPVPLKTSRAQKIQILIFDNWKLILYGAISTLILVLAIMFSTLFFALPAANCDENSEPTKYYTTNAEITTTITTTNQKTTSTASSHLTTISSSATQIYSESSSSSTSQSTFTQSPPEISTTTIAPSDFSCQHGFTLVNNKCWKLVTSNQARPDADKICNGYGGATLFSIKSEQDNRAMIHFVKGQDIDFLWSGLLCSAGEPISCIWDIENGSTANYSNFADGFPNIVYGNCVYFITSGDEAGQWGNEQCGQVMNFVCELPATFQGKDGCKNNYEKSCYLRFDLNLTVPQAQNFCLEKCANLVSIHSANEVRFIMTIYDFIGEILIGALAPAQDFIYWLDGTPANYNNLKFFYNSTCVHMTVAPGMQNVGKWFTRFCTETGKFLCKRSIKNSCT | glycan array binding signal (z-score) | [16] | -0.091
same | glycan array binding signal (z-score) | [18] | -0.46
